From publication PMC7734574 (International Journal of Molecular Sciences, 2020)

Tested on: lysates of human umbilical vein endothelial cells (HUVECs)
Experiment: kinome activity profiling (PamGene) of treated cell lysate
Format: biochemical
Conditions: 1 µM, HUVEC lysate, 10% DMSO
Protocol: By using the PamGene technology, kinase activities are studied via the phosphorylation degree of over 144 substrate peptides fixed in arrays. […] As described above, 10% DMSO as co-solvent was also necessary in this assay to avoid compound precipitation of the micromolar compound solution.
Human Umbilical Vein Endothelial Cells (HUVECs) were obtained from PromoCell (Heidelberg, Germany) and cultivated with ECGM2 (PromoCell) at 37 °C and 5% CO2 in humidified atmosphere. For kinome profiling, HUVECs were seeded in cell culture flasks (25 cm^2) to 90% confluence. After cell lysis with M-Per and centrifugation at 4 °C, cell lysates were immediately stored at −80 °C [14]. Protein concentration was determined with Bradford assay (ThermoFisher, Waltham, MA, USA). Samples for profiling were prepared according to manufacturer’s protocol. For kinome profiling, PamStation® 12 was used (PamGene, ’s-Hertogenbosch, Netherlands). Protein tyrosine kinase PamChips® were used with a total of 5 µg protein and 100 µM ATP per array. The microchip for kinome profiling contains 144 peptides linked to a porous surface. These peptides can be phosphorylated by cell lysate kinases. Readout was achieved by washing microchips with fluorescent antibodies. […]

CNC(=O)c1ccccc1Sc1ccc2c(/C=C/c3ccccn3)n[nH]c2c1 [Compound 1, Axitinib]
kinase activities (phosphorylation degree of substrate peptides) compared to DMSO: strong kinase inhibition
